The results in this text go back to PubChem BioAssay AID2073 (Sanford-Burnham Center for Chemical Genomics, 2009).

Protein sequences, listed by entry. Tags and fused reporters are not part of them.
UniProt Q00975, whole entry: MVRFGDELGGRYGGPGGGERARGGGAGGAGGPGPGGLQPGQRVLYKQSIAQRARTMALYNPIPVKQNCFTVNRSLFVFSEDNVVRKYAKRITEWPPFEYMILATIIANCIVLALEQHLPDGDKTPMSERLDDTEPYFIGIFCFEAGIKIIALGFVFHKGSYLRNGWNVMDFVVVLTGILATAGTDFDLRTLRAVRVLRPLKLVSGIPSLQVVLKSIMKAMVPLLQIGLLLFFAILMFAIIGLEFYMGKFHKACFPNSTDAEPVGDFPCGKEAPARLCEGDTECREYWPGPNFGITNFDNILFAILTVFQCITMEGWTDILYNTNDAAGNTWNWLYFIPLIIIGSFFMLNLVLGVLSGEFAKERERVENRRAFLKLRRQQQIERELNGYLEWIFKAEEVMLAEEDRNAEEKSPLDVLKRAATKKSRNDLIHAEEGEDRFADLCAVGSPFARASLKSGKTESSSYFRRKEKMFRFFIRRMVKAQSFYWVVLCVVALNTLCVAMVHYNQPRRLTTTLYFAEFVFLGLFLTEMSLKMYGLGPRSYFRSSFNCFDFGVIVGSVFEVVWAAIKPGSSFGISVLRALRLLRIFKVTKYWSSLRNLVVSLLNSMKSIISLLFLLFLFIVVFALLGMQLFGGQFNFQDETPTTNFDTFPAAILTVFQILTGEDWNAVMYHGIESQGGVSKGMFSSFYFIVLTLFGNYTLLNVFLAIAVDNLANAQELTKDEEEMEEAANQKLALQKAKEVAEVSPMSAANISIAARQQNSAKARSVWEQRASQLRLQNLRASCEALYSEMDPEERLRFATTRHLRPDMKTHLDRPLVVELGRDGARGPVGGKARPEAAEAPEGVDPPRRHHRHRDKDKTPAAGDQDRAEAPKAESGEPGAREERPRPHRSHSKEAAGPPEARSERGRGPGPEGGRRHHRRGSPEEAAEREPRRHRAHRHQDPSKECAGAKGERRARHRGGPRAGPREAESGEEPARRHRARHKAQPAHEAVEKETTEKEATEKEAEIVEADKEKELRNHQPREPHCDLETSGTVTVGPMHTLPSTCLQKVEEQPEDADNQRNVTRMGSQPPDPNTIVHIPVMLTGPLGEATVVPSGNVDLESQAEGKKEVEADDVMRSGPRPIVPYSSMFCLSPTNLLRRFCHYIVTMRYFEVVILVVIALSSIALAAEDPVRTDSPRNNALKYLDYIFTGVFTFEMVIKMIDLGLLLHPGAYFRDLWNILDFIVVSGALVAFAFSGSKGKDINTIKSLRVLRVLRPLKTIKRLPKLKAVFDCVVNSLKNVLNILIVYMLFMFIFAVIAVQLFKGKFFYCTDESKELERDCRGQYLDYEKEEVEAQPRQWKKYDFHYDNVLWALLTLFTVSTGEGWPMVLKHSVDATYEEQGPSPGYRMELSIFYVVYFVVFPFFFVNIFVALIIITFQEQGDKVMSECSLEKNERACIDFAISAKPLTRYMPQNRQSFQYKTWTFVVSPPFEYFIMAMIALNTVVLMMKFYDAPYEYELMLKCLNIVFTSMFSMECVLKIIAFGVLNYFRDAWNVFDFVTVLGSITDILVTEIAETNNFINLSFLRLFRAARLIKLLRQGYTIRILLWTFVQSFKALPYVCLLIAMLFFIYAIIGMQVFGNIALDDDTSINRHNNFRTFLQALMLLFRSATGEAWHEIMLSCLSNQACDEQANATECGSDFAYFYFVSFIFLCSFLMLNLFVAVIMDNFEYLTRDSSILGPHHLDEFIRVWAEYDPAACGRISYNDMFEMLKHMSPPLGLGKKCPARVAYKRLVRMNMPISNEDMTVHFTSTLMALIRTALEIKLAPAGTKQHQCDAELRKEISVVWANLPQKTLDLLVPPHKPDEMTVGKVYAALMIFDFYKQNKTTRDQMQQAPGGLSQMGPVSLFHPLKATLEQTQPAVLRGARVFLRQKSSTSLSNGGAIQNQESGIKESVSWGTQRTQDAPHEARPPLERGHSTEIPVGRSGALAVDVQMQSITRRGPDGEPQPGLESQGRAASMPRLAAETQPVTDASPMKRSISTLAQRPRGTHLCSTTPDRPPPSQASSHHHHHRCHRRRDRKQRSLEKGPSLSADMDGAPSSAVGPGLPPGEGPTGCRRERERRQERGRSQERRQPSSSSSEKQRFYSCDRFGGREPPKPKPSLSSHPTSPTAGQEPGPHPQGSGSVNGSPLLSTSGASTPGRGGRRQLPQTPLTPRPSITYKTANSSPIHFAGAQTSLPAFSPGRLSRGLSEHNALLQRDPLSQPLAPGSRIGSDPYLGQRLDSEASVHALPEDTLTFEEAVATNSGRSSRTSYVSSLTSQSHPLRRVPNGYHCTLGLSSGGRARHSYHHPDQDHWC

SMILES strings stand for the structures. Some of the results follow.

Broadly, the inhibition is the percentage by which the read-out fell short of the control.

In the experiment the target is Voltage-dependent N-type calcium channel subunit alpha-1B (Homo sapiens) (UniProt Q00975). Put plainly: inhibitors of Mint1-CaV2.2 protein interaction, biochemical, HTRF (AID 2073). Conditions: measured here: average of repeat tests, at 20 µM, stronger effect = higher value. For orientation: TR-FRET usually uses a lanthanide donor and a delayed reading to cut background.
As for `CCN(CC)c1ccc(NC(=O)Cn2c(C(C)NC(=O)c3ccccc3)nc3ccccc32)cc1` (stereo unspecified), the inhibition amounted to 69.2%.
